Laboratory results published in patent US20190111103A1, “NOVEL PEPTIDE OR SALT THEREOF, COMPOSITION FOR ENHANCING PROLIFERATION OF FIBROBLAST CELLS AND COMPOSITION FOR ENHANCING ELASTIN PRODUCTION IN FIBROBLAST CELLS AND CHONDROCYTES CONTAINING THE SAME” (Hayashikane Sangyo Co., Ltd., priority 2017, published 2019).
Some results were stated once for a whole list of compounds, not compound by compound.

Tests used:
Type in all cases: cell-based
[1] = system: normal human skin fibroblast cells; test: Proliferation test of normal human skin fibroblast cells; settings: 4 days incubation, 0.5% FBS DMEM, relative to sample without peptide, Dunnett's test p<0.01
Method: Skin fibroblast cells cultured in a culture flask was seeded in a 96-well plate at 3,500 cells/cm^2 ([…], medium: 10% FBS DMEM). After incubating for 24 hours at 37° C. under 5% CO2 condition, the liquid medium in the wells was removed, replaced with DMEM containing 0.5% FBS and incubated for 24 hours under similar conditions. The liquid medium in the wells was removed and the wells were washed with DPBS, after which DPBS was removed. Solutions of predetermined concentrations of peptide Val-Pro-Gly-Gly (VPGG) and peptide Val-Pro-Gly-Ala (VPGA) were prepared using DMEM containing 0.5% FBS were prepared and 100 μL of the solution was added to each well. Fibroblast cells were incubated for 4 days at 37° C. under 5% CO2 condition and supernatant was recovered. The supernatant recovered was used for a measurement of amount of elastin production in Example 2. DMEM containing 0.5% FBS was added and cells were counted using cell counting kit-8 (10 μL/well) and a cell proliferation rate relative to the cell number obtained from the sample without adding the peptides.

[2] = system: normal human skin fibroblast cells; test: Elastin production test in normal human skin fibroblast cells (ELISA); settings: elastin per cell by ELISA, Dunnett's test p<0.05
[3] = system: normal human lung fibroblast cells; test: Elastin production test in normal human lung fibroblast cells
[4] = system: normal human lung fibroblast cells; test: Proliferation test of normal human lung fibroblast cells; settings: 3 days incubation, 0.5% FBS DMEM, Dunnett's test

| Substance | peptide concentration resulting in significant increase of the cell proliferation rate [1] | peptide concentration resulting in significant increase of the amount of elastin production [2] | peptide concentration resulting in slight effect of promoting elastin production [3] | peptide concentration resulting in significant increase of the cell proliferation rate [4] |
| --- | --- | --- | --- | --- |
| Val-Pro-Gly-Ala (VPGA; printed: Val-Pro-Gly-Ala) | ≥ 5 ng/mL | ≥ 50,000 ng/mL | ≥ 50000 ng/mL | ≥ 5 ng/mL |
| Val-Pro-Gly-Gly (VPGG; printed: Val-Pro-Gly-Gly) | ≥ 5 ng/mL | ≥ 50,000 ng/mL | ≥ 50000 ng/mL | ≥ 5 ng/mL |
